Assay results taken from the supplement of paper PMC3334620.
Over roughly 33,000 sequences, “E-score (-0.5 to 0.5)” has its median near -0.015; the highest 2% begin near 0.3. Some of the results follow.

What follows are sequences tested against T1, Abf1 (UniProt P14164) (assay: PBM E-score (8-mer binding enrichment) (E-score (-0.5 to 0.5)); higher = stronger / more preferred TF binding). Settings: protein concentration: 200 nM; construct: GST-full length.
T1 sequence: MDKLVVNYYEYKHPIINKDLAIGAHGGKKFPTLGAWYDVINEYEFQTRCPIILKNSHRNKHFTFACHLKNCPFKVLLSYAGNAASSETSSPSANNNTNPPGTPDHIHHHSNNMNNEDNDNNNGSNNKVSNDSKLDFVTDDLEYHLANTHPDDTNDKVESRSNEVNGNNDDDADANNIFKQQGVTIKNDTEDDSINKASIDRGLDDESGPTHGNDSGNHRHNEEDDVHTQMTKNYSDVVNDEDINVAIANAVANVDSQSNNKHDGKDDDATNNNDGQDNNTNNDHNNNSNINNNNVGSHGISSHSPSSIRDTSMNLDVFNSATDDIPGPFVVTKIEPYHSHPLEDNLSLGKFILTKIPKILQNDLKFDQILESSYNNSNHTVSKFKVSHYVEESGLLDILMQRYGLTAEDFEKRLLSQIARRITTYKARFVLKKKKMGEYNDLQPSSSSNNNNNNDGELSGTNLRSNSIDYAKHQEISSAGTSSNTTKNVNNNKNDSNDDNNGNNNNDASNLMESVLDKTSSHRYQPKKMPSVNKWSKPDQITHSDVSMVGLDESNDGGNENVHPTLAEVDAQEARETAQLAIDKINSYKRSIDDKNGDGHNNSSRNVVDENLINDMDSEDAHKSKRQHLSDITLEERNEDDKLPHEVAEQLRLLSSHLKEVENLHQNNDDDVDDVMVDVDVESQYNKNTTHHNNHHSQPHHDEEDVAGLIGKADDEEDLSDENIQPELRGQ
Summary of the method: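 Yeast transcription factors, full-length or as DNA-binding domains, were expressed with a GST tag using PURExpress in vitro transcription/translation. At about 100-200 nM they were applied to universal all-10-mer Agilent arrays, double-stranded by primer extension on fresh or once-stripped slides. Fluorescent anti-GST detected bound protein, and masliner normalised the scans. E-scores for ungapped eight-base words, pooled with reverse complements, came from the Universal PBM Analysis Suite.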
For CTATGCGC, the “PBM E-score” value was -0.0302. For AGCTCCTA, the “PBM E-score” value was -0.253. With TCTCGCAA the “PBM E-score” value was -0.0498. For GAGCATCA, the “PBM E-score” value was -0.154. In the case of GAGGGCTA, the “PBM E-score” value was -0.144. TCTGATCA was tested, and the “PBM E-score” value was 0.155. In the case of AGTAAGCA, the “PBM E-score” value was -0.129. With CAACCTTC the “PBM E-score” value was -0.0626. With GCTTTTCC the “PBM E-score” value was -0.0849. In the case of AAAGTACA, the “PBM E-score” value was 0.0707. ACTTTGAT was tested, and the “PBM E-score” value was 0.0527. In the case of GAGTGTTA, the “PBM E-score” value was 0.0138. GGTGCTGA was tested, and the “PBM E-score” value was 0.0492. In the case of AAAAATAG, the “PBM E-score” value was 0.131. In the case of AATGGTAC, the “PBM E-score” value was -0.00546. With AGCCGTCC the “PBM E-score” value was 0.0251. In the case of ACATCCAC, the “PBM E-score” value was 0.084. For GGCACTAA, the “PBM E-score” value was -0.0676. In the case of CGGCAAGA, the “PBM E-score” value was 0.109. With ACGGTGCT the “PBM E-score” value was 0.0582. With CCGGGTCG the “PBM E-score” value was -0.0489. CGACGCGA was tested, and the “PBM E-score” value was -0.0138. GGCTCAGA was tested, and the “PBM E-score” value was 0.00214. With GGCATCCC the “PBM E-score” value was -0.0701. In the case of ACCGGATG, the “PBM E-score” value was -0.0378. For AGGATGAT, the “PBM E-score” value was 0.284. With AGCCCACT the “PBM E-score” value was -0.0922. For ACCCGATA, the “PBM E-score” value was 0.108. CGGCGCGA was tested, and the “PBM E-score” value was 0.1. For CCACACAA, the “PBM E-score” value was -0.257. With CGTGGTGA the “PBM E-score” value was 0.14. With ACTAGCAA the “PBM E-score” value was -0.0621. With CATCCAGA the “PBM E-score” value was -0.0615. For GTCGTAGA, the “PBM E-score” value was 0.278. In the case of AGCCCCCT, the “PBM E-score” value was -0.225. GCTGGTAC was tested, and the “PBM E-score” value was 0.0196. With CCACGCCA the “PBM E-score” value was -0.172. In the case of CTTGTAGC, the “PBM E-score” value was -0.2. In the case of ACGCGGAC, the “PBM E-score” value was -0.0498. With GGATGTCA the “PBM E-score” value was 0.171. With CCGTGAGA the “PBM E-score” value was 0.171. For CTCTGCTA, the “PBM E-score” value was -0.157. With ACGCAGTA the “PBM E-score” value was -0.106. With ATCTTGCG the “PBM E-score” value was 0.0144. With ATGCTCAA the “PBM E-score” value was -0.0189. With CACGTTTC the “PBM E-score” value was -0.0663. ATCACTGG was tested, and the “PBM E-score” value was 0.332. CAGTCGCG was tested, and the “PBM E-score” value was 0.033. With GGACACAA the “PBM E-score” value was 0.0272. With CCTACCAC the “PBM E-score” value was -0.171. With ATAGCGGG the “PBM E-score” value was -0.151. CATCATAG was tested, and the “PBM E-score” value was -0.00083. In the case of ATGGGAAC, the “PBM E-score” value was -0.0942. CCCTATCG was tested, and the “PBM E-score” value was -0.234. ATTCCGAA was tested, and the “PBM E-score” value was 0.0789. In the case of CACGGAAC, the “PBM E-score” value was 0.214. CGTCCTTC was tested, and the “PBM E-score” value was 0.0157. In the case of TCTAGCAA, the “PBM E-score” value was -0.0335. For AGAAAGGC, the “PBM E-score” value was -0.114. For CGTATAGA, the “PBM E-score” value was 0.295. In the case of GCATCTAA, the “PBM E-score” value was 0.0436. In the case of ACTTAGTC, the “PBM E-score” value was -0.0355. With GTGTTAAC the “PBM E-score” value was -0.0374. For TCGTAGCA, the “PBM E-score” value was 0.256. In the case of CGCCCACC, the “PBM E-score” value was -0.127. TATAGTGA was tested, and the “PBM E-score” value was 0.236. With ACTTAAAT the “PBM E-score” value was 0.0333. With ACTGTAAG the “PBM E-score” value was -0.00033. ACTTAGAC was tested, and the “PBM E-score” value was 0.151. GCCCTACA was tested, and the “PBM E-score” value was -0.0753. With ATAAAGAT the “PBM E-score” value was 0.0897. With AGCTTGTA the “PBM E-score” value was -0.2. GGAGAGAC was tested, and the “PBM E-score” value was -0.0713. With AATCGAAT the “PBM E-score” value was -0.016. GACTAGCA was tested, and the “PBM E-score” value was -0.0701. For GCGGCAGC, the “PBM E-score” value was -0.18. In the case of TAACTATA, the “PBM E-score” value was -0.0578. For GCCCAGGA, the “PBM E-score” value was -0.147. For CTATAATC, the “PBM E-score” value was 0.132. For CTGCCGCA, the “PBM E-score” value was -0.0733. In the case of CTTTAGAA, the “PBM E-score” value was 0.0749. For ACGTAGGA, the “PBM E-score” value was 0.196. For ACGCTGTA, the “PBM E-score” value was 0.0495. With GGCGAAAA the “PBM E-score” value was 0.00612. With AGCAGAGA the “PBM E-score” value was -0.186. In the case of ACGAAATG, the “PBM E-score” value was 0.209.
